Reference: PubChem BioAssay AID1508597 (Cure First, 2020)
Screen: 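Knock-downs altering ovarian cancer cell survival with or without PARP inhibitor rucaparib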 (primary screen). Cell system: human ovarian carcinoma lines grown from tumours: OCI-P5x (papillary serous) and OCI-C5x (clear cell). Reagents: siRNA pool against human genes, 1.25 pmol siRNA per well. Time to read-out: 72 h or 96 h, depending on the cell culture. Conditions: rucaparib 20 µM (about IC30) or vehicle, present until read-out. Measured: 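ATP luminescence measured at 72 or 96 h according to the culture, then normalised and expressed as percent viability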. Scale: viability, normalised: higher = more viable cells remaining. Call rule: 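a well counts as a hit if its normalised viability is under 80 percent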. Calls: active = viability under 80%; inactive = viability 80% or more.
Shown is an unselected part of about 2,100 reagents. 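Calls flag viability under 80% in either arm, not effects specific to rucaparib; the reference for percent is not stated.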 Entries without a mark were called inactive. The record does not give: the 100% reference.

GRB10 (GeneID 2887), rucaparib or vehicle Rucaparib, cell line OCI-C5x (clear cell), technical replicate 1
- viability, normalised (%): 46.4 (active)

GRB10 (GeneID 2887), rucaparib or vehicle Rucaparib, cell line OCI-C5x (clear cell), technical replicate 2
- viability, normalised (%): 54.2 (active)

GRB10 (GeneID 2887), rucaparib or vehicle Rucaparib, cell line OCI-C5x (clear cell), technical replicate 3
- viability, normalised (%): 67.1 (active)

GRB10 (GeneID 2887), rucaparib or vehicle Rucaparib, cell line OCI-P5x (serous), technical replicate 1
- viability, normalised (%): 85

GRB10 (GeneID 2887), rucaparib or vehicle Rucaparib, cell line OCI-P5x (serous), technical replicate 2
- viability, normalised (%): 49.9 (active)

GRB10 (GeneID 2887), rucaparib or vehicle Rucaparib, cell line OCI-P5x (serous), technical replicate 3
- viability, normalised (%): 89.6

GRB10 (GeneID 2887), rucaparib or vehicle Vehicle, cell line OCI-C5x (clear cell), technical replicate 1
- viability, normalised (%): 58.6 (active)

GRB10 (GeneID 2887), rucaparib or vehicle Vehicle, cell line OCI-C5x (clear cell), technical replicate 2
- viability, normalised (%): 57.4 (active)

GRB10 (GeneID 2887), rucaparib or vehicle Vehicle, cell line OCI-C5x (clear cell), technical replicate 3
- viability, normalised (%): 54.4 (active)

GRB10 (GeneID 2887), rucaparib or vehicle Vehicle, cell line OCI-P5x (serous), technical replicate 1
- viability, normalised (%): 68.6 (active)

GRB10 (GeneID 2887), rucaparib or vehicle Vehicle, cell line OCI-P5x (serous), technical replicate 2
- viability, normalised (%): 64.9 (active)

GRB10 (GeneID 2887), rucaparib or vehicle Vehicle, cell line OCI-P5x (serous), technical replicate 3
- viability, normalised (%): 67.9 (active)

No new results follow: entries from further up.
GRB10 (GeneID 2887), rucaparib or vehicle Vehicle, cell line OCI-C5x (clear cell), technical replicate 2
- viability, normalised (%): 57.4 (active)

GRB10 (GeneID 2887), rucaparib or vehicle Vehicle, cell line OCI-C5x (clear cell), technical replicate 3
- viability, normalised (%): 54.4 (active)

GRB10 (GeneID 2887), rucaparib or vehicle Vehicle, cell line OCI-P5x (serous), technical replicate 1
- viability, normalised (%): 68.6 (active)

GRB10 (GeneID 2887), rucaparib or vehicle Vehicle, cell line OCI-P5x (serous), technical replicate 2
- viability, normalised (%): 64.9 (active)

Continued.
TTBK1 (GeneID 84630), rucaparib or vehicle Rucaparib, cell line OCI-C5x (clear cell), technical replicate 1
- viability, normalised (%): 64.5 (active)

TTBK1 (GeneID 84630), rucaparib or vehicle Rucaparib, cell line OCI-C5x (clear cell), technical replicate 2
- viability, normalised (%): 45.6 (active)

TTBK1 (GeneID 84630), rucaparib or vehicle Rucaparib, cell line OCI-C5x (clear cell), technical replicate 3
- viability, normalised (%): 51.1 (active)

TTBK1 (GeneID 84630), rucaparib or vehicle Rucaparib, cell line OCI-P5x (serous), technical replicate 1
- viability, normalised (%): 75.8 (active)

TTBK1 (GeneID 84630), rucaparib or vehicle Rucaparib, cell line OCI-P5x (serous), technical replicate 2
- viability, normalised (%): 77 (active)

TTBK1 (GeneID 84630), rucaparib or vehicle Rucaparib, cell line OCI-P5x (serous), technical replicate 3
- viability, normalised (%): 66.3 (active)

TTBK1 (GeneID 84630), rucaparib or vehicle Vehicle, cell line OCI-C5x (clear cell), technical replicate 1
- viability, normalised (%): 40.9 (active)

TTBK1 (GeneID 84630), rucaparib or vehicle Vehicle, cell line OCI-C5x (clear cell), technical replicate 2
- viability, normalised (%): 57.2 (active)

TTBK1 (GeneID 84630), rucaparib or vehicle Vehicle, cell line OCI-C5x (clear cell), technical replicate 3
- viability, normalised (%): 51.8 (active)

TTBK1 (GeneID 84630), rucaparib or vehicle Vehicle, cell line OCI-P5x (serous), technical replicate 1
- viability, normalised (%): 74.7 (active)

TTBK1 (GeneID 84630), rucaparib or vehicle Vehicle, cell line OCI-P5x (serous), technical replicate 2
- viability, normalised (%): 85.1

TTBK1 (GeneID 84630), rucaparib or vehicle Vehicle, cell line OCI-P5x (serous), technical replicate 3
- viability, normalised (%): 79.8 (active)

TERF2IP (GeneID 54386), rucaparib or vehicle Rucaparib, cell line OCI-C5x (clear cell), technical replicate 1
- viability, normalised (%): 68.3 (active)

TERF2IP (GeneID 54386), rucaparib or vehicle Rucaparib, cell line OCI-C5x (clear cell), technical replicate 2
- viability, normalised (%): 58.6 (active)

TERF2IP (GeneID 54386), rucaparib or vehicle Rucaparib, cell line OCI-C5x (clear cell), technical replicate 3
- viability, normalised (%): 58.8 (active)

TERF2IP (GeneID 54386), rucaparib or vehicle Rucaparib, cell line OCI-P5x (serous), technical replicate 1
- viability, normalised (%): 63.1 (active)

TERF2IP (GeneID 54386), rucaparib or vehicle Rucaparib, cell line OCI-P5x (serous), technical replicate 2
- viability, normalised (%): 61.9 (active)

TERF2IP (GeneID 54386), rucaparib or vehicle Rucaparib, cell line OCI-P5x (serous), technical replicate 3
- viability, normalised (%): 61 (active)

TERF2IP (GeneID 54386), rucaparib or vehicle Vehicle, cell line OCI-C5x (clear cell), technical replicate 1
- viability, normalised (%): 56.7 (active)

TERF2IP (GeneID 54386), rucaparib or vehicle Vehicle, cell line OCI-C5x (clear cell), technical replicate 2
- viability, normalised (%): 70.1 (active)

TERF2IP (GeneID 54386), rucaparib or vehicle Vehicle, cell line OCI-C5x (clear cell), technical replicate 3
- viability, normalised (%): 63.7 (active)

TERF2IP (GeneID 54386), rucaparib or vehicle Vehicle, cell line OCI-P5x (serous), technical replicate 1
- viability, normalised (%): 64.2 (active)

TERF2IP (GeneID 54386), rucaparib or vehicle Vehicle, cell line OCI-P5x (serous), technical replicate 2
- viability, normalised (%): 76.6 (active)

TERF2IP (GeneID 54386), rucaparib or vehicle Vehicle, cell line OCI-P5x (serous), technical replicate 3
- viability, normalised (%): 65.4 (active)
